Results are given in words; binding and its absence hold for the method and conditions named. In cells and extracts the contact can be indirect. Some results given as binding are weak or reduced against the parent protein; the word gives no strength. Sequences can lack the tags named with a protein.
Legend:
[1] = molecular target: T1, C2a fragment of human C2 (made by cleavage of C2 with C1s) (human) (UniProt P06681); assay: pull-down with cobalt resin and western blot
T1 sequence (looked up): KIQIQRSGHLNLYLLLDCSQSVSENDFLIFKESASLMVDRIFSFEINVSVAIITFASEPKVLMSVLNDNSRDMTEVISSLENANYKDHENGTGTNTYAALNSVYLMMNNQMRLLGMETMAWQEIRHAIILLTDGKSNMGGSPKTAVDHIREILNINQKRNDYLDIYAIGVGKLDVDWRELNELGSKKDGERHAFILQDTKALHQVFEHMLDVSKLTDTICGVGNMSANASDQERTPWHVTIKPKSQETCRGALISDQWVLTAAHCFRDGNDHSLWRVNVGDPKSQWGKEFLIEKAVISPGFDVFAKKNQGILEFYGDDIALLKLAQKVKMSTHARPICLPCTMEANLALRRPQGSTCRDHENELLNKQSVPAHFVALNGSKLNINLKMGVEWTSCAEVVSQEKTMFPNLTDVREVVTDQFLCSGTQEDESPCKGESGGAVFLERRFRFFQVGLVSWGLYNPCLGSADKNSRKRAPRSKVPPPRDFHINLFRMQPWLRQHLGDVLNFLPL

[2] = molecular target: T1, C2a fragment of human C2 (made by cleavage of C2 with C1s) (human); assay: pull-down and ELISA taken together
[3] = molecular target: T1, C2a fragment of human C2 (made by cleavage of C2 with C1s) (human); assay: pull-down of C1s-cleaved C2 with His-tagged nanobody on cobalt resin, western blot

Measured: binding

B1: Clone 1B10 C2 nanobody (Nab1B10), monovalent, His-tagged (VHH)
VHH: QVQLQESGGGLVQAGGSLRLSCAASGHTFRSYYMGWFRQAPGKEREFVASISWTGGSTEYADSVKGRFTISRDNAKNTVYLQMNSLKPEDTAAYYCAADYSGDFLLSDLDSWGQGTQVTVSS
notes: Alpaca VHH expressed in E. coli BL21 from the pMES4 vector; single 15 kDa band on SDS-PAGE; also called NablBlO; Nabl BIO; not shown: His tag (monovalent form is 'His-tagged', purified on cobalt resin)
binds: all assays above

From patent publication EP4676952A2 (dated 2026)
